# Measured values as given in paper doi:10.1101/2021.09.01.458589.
# Results are given in words; binding and its absence hold for the method and conditions named. Binding seen in cells or lysates may run through a third protein. Tags and fused reporters may be left off the sequences shown.
# T1: RPM1-interacting protein4 of Arabidopsis, N-terminally FLAG-tagged (FLAG:AtRIN4) (Arabidopsis), Q8GYN5
# T1 chain: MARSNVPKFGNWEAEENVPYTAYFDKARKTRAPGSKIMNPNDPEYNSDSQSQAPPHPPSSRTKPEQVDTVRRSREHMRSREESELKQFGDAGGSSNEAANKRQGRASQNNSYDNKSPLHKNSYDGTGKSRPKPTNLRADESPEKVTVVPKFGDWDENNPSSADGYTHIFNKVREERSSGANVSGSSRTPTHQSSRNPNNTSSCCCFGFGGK
# Biological target: T1, RPM1-interacting protein4 of …
# Experiment: co-IP
# Conditions: remark: other sources report otherwise
binder,measurement,value
"RPM1-interacting protein4 of Arabidopsis, N-terminally FLAG-tagged (FLAG:AtRIN4), Q8GYN5 1-211 (protein) MARSNVPKFGNWEAEENVPYTAYFDKARKTRAPGSKIMNPNDPEYNSDSQSQAPPHPPSSRTKPEQVDTVRRSREHMRSREESELKQFGDAGGSSNEAANKRQGRASQNNSYDNKSPLHKNSYDGTGKSRPKPTNLRADESPEKVTVVPKFGDWDENNPSSADGYTHIFNKVREERSSGANVSGSSRTPTHQSSRNPNNTSSCCCFGFGGK",binding,no binding
